# Experiment: Boc solid-phase peptide synthesis; Benzhydrylamine resin
# Settings: whole synthesis, scale 0.50 mmole
substance,measurement,value
L-tyrosyl-D-alanyl-L-glycyl-L-pentafluoro phenylalanyl-L-methionine enkephalin amide,isolated mass,45 mg
